Laboratory results taken from PMC5996148.
The other results are listed elsewhere or left out.

How the values were obtained:
Assay in all cases: protein microarray (ProtoArray v5.0), streptavidin-Alexa Fluor 647
Conditions in all cases: 3'-biotin; 20 mM Tris (pH 7.5), 5 mM MgCl2, 100 mM KCl, 0.1% Tween-20, A/T-rich and random oligonucleotide blockers; temperature not stated; high values mean tight binding
GNMT (human) = system: GNMT (human)
GNPTAB (human) = system: GNPTAB (human)
GOLPH2 (human) = system: GOLPH2 (human)
GPD1 (human) = system: GPD1 (human)
[1] = system: GPI transamidase component PIG-S (human)
GPR15 (human) = system: GPR15 (human)
GPRC5C (human) = system: GPRC5C (human)
GPSM3 (human) = system: GPSM3 (human)
GSTA1 (human) = system: GSTA1 (human)
GSTA3 (human) = system: GSTA3 (human)

## GGTGACAGGGGTATGGGGAGGGG [G4-2 biotinylated (Ct1)]
GNMT (human)
  binding signal: -0.388 z-score
GNPTAB (human)
  binding signal: -0.361 z-score
GOLPH2 (human)
  binding signal: -0.374 z-score
GPD1 (human)
  binding signal: -0.399 z-score
[1]
  binding signal: -0.381 z-score
GPR15 (human)
  binding signal: -0.363 z-score
GPRC5C (human)
  binding signal: -0.376 z-score
GPSM3 (human)
  binding signal: -0.397 z-score
GSTA1 (human)
  binding signal: -0.382 z-score
GSTA3 (human)
  binding signal: -0.389 z-score
